Record: PubChem BioAssay AID652272 (Drosophila RNAi Screening Center, 2013)
Aim: 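Genes whose knock-down decreases or increases Hedgehog reporter output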 (primary screen). Cell system: Drosophila clone 8 (Cl8) cells. Knock-down reagent: long dsRNA against Drosophila genes. Measured: 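Plate reader light from a firefly reporter under a ptc promoter fragment that responds to Hedgehog, with Renilla light as transfection reference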. Direction: firefly Hh reporter signal: higher = more ptc reporter light; Renilla reference signal: higher = more Renilla control light. Rule for the call: 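Called a hit if the two-replicate mean z-score lies below -2 or above +3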. Meaning of the calls: active = hit: reporter lowered or raised; inactive = not a hit.
The deposit covers about 21,000 reagents; below is an unselected part of those that have a named target and a result. In the full data, 503 (2.4%) were called active. 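Raw plate light values, not normalised; calls rest on replicate z-scores that were not deposited; hits include reporter decreases as well as increases.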 The record does not give: the amount of reagent, the time to read-out.

target gene | amplicon | firefly Hh reporter signal, replicate 1 | firefly Hh reporter signal, replicate 2 | firefly Hh reporter signal, replicate 3 | Renilla reference signal, replicate 1 | Renilla reference signal, replicate 2 | Outcome
Cisd2 | DRSC14904 | 98073 | 1.19e5 | – | 1933 | 2816 | inactive
rdgB | DRSC20365 | 5.84e5 | 77380 | – | 3206 | 3206 | inactive
SKIP | DRSC14713 | 8.91e5 | 1.66e5 | – | 43580 | 3140 | inactive
SKIP | DRSC14714 | 6.48e5 | 1.59e5 | – | 32170 | 3030 | inactive
SKIP | DRSC15864 | 4.86e5 | 1.58e5 | – | 23964 | 3226 | inactive
SKIP | DRSC16195 | 1.65e5 | 7.89e5 | 1.12e5 | 6557 | 44124 | inactive
SKIP | DRSC16196 | 8.86e5 | 8.93e5 | 1.77e5 | 39803 | 6049 | inactive
Sodh2 | DRSC16865 | 1.57e5 | 2.15e5 | – | 5545 | 6628 | inactive
CG12133 | DRSC06108 | 1.06e5 | 49997 | – | 2432 | 4525 | inactive
CG5895 | DRSC10554 | 1.37e5 | – | – | 1824 | 4085 | inactive
CG13002 | DRSC19521 | 78171 | 1.68e5 | – | 1985 | 6700 | inactive
dsx | DRSC12649 | 1.70e5 | – | – | 3222 | – | inactive
dsx | DRSC16934 | 1.88e5 | 6.84e5 | 1.29e5 | 8084 | 42112 | inactive
pix | DRSC10533 | 15913 | 31569 | – | 3554 | 2951 | inactive
Tom70 | DRSC02990 | 58593 | 3.62e5 | 30822 | 1943 | 24005 | inactive

The list goes on (2 carried over from the part before).
target gene | amplicon | firefly Hh reporter signal, replicate 1 | firefly Hh reporter signal, replicate 2 | firefly Hh reporter signal, replicate 3 | Renilla reference signal, replicate 1 | Renilla reference signal, replicate 2 | Outcome
pix | DRSC10533 | 15913 | 31569 | – | 3554 | 2951 | inactive
Tom70 | DRSC02990 | 58593 | 3.62e5 | 30822 | 1943 | 24005 | inactive
Bhmt | DRSC02079 | 49257 | 29869 | – | 1368 | 3254 | inactive
PIP5K59B | DRSC04290 | 89472 | 63457 | – | 3204 | 2669 | inactive
PIP5K59B | DRSC04403 | 99671 | 77804 | – | 2259 | 6268 | inactive
CG11668 | DRSC14341 | 1.02e5 | 87340 | – | 3208 | 2547 | inactive
barr | DRSC03488 | 66925 | 34375 | – | 1789 | 3447 | inactive
ND-19 | DRSC04404 | 1.29e5 | 71469 | – | 3065 | 6301 | inactive
CG14435 | DRSC17928 | 89659 | 2.63e5 | – | 3403 | 9437 | inactive
RSG7 | DRSC20274 | 1.20e5 | 3.13e5 | – | 4300 | 12393 | inactive
CG42566 | DRSC03949 | 1.60e5 | 2.41e5 | – | 4093 | 11686 | inactive
P5CDh1 | DRSC11801 | 88490 | 78093 | – | 2960 | 3622 | inactive
CG9628 | DRSC11082 | 1.00e5 | 1.21e5 | – | 4056 | 4312 | inactive
Hk | DRSC17638 | 6.30e5 | 2.79e5 | – | 31104 | 4201 | inactive
Hk | DRSC17639 | 3.09e5 | 1.22e5 | – | 21174 | 3161 | inactive
Hk | DRSC18138 | 62837 | 42044 | – | 2129 | 1205 | inactive
Hk | DRSC18674 | 73914 | 1.51e5 | – | 1408 | 3808 | active
RalGPS | DRSC06941 | 95329 | 89587 | – | 4226 | 3637 | inactive
CG6790 | DRSC16117 | 1.19e5 | 1.18e5 | – | 5532 | 4608 | inactive
SPH93 | DRSC02978 | 1.21e5 | 66276 | – | 3184 | 6118 | inactive
CLIP-190 | DRSC03283 | 78192 | 55760 | – | 3286 | 1629 | inactive
CG8001 | DRSC08611 | 1.17e5 | 96555 | – | 5962 | 4434 | inactive
shakB | DRSC20420 | 7.52e5 | 3.09e5 | – | 42009 | 5382 | inactive
shakB | DRSC20423 | 7.20e5 | 2.86e5 | – | 43369 | 5009 | inactive
shakB | DRSC20492 | 1.15e5 | 3.58e5 | – | 2296 | 14624 | inactive
shakB | DRSC20585 | 68432 | 1.78e5 | – | 2280 | 7737 | inactive
